According to patent publication USRE50049E1, “Compositions and methods for treating psoriasis” (SYMBIONYX PHARMACEUTICALS INC, priority 2015, dated 2024):
Some entries share one result that the patent states for a list of compounds.

Tested on: 3T3
Experiment: 3T3 Neutral Red Uptake Phototoxicity Assay
Type: cell-based
Conditions: positive controls
From the text: The 3T3 Neutral Red Uptake Phototoxicity Assay was based on the OECD Guideline for Testing of Chemicals: […], with chlorpromazine and tazarotene as positive controls.

## CN(C)CCCN1c2ccccc2Sc2ccc(Cl)cc21 [chlorpromazine]
  PIF: > 6

## CCOC(=O)c1ccc(C#Cc2ccc3c(c2)C(C)(C)CCS3)nc1 [tazarotene, reference compound]
  PIF: > 6
